Measured values: US10159726B2, “Peptides, combination of peptides and scaffolds for use in immunotherapeutic treatment of various cancers” (Immatics Biotechnologies GmbH, priority 2015, dated 2018)

What was measured:
Parameters in all cases: species or system human
[1] = tested on: source genes of selected peptides; test: Target coverage of source genes in tumor entities based on TCGA Research Network data; conditions: over-expressed = more than 2-fold above the highest 75% percentile of normal organs; for Target coverage, over-expression category of source gene, ACC (N = 79): Adrenocortical carcinoma; for Target coverage, over-expression category of source gene, BLCA (N = 408): Bladder urothelial carcinoma; for Target coverage, over-expression category of source gene, CESC (N = 307): Cervical squamous cell carcinoma and endocervical adenocarcinoma; for Target coverage, over-expression category of source gene, CHOL (N = 36): Cholangiocarcinoma; for Target coverage, over-expression category of source gene, HNSC (N = 521): Head and neck squamous cell carcinoma; for Target coverage, over-expression category of source gene, LGG (N = 534): Lower grade glioma; for Target coverage, over-expression category of source gene, DLBC (N = 48): Lymphoid neoplasm diffuse large B-cell lymphoma; for Target coverage, over-expression category of source gene, MESO (N = 87): Mesothelioma
[2] = tested on: HLA-A*24 molecules of primary tumors; test: Identification and relative LC-MS quantitation of HLA-A*24 tumor-associated peptides presented on tissue samples (XPRESIDENT presentation profiles); conditions: for Peptide Presentation on cancer entities: Table 9B: selected HLA-A*24 peptides, presentation on additional cancer entities; for ENTITIES: Table 9A: selected HLA-A*24-binding tumor-associated peptides, cancer entities on which the peptide was found presented
[3] = tested on: source genes of selected peptides; test: Expression profiling of source genes by in-house RNAseq, tumor vs normal tissues (target coverage); conditions: for Target coverage, over-expression of source gene, AML: AML (N = 7); for Target coverage, over-expression of source gene, AML / Target coverage, over-expression of source gene, BRCA / Target coverage, over-expression of source gene, CLL / Target coverage, over-expression of source gene, CRC / Target coverage, over-expression of source gene, GB / Target coverage, over-expression of source gene, HCC / Target coverage, over-expression of source gene, OC / Target coverage, over-expression of source gene, OSCAR / Target coverage, over-expression of source gene, PC / Target coverage, over-expression of source gene, RCC / Target coverage, over-expression of source gene, SCLC / Target coverage, over-expression of source gene, pNSCLC: share of tumors with more than 1.5-fold higher expression than highest relevant normal tissue, in-house RNASeq; for Target coverage, over-expression of source gene, BRCA: BRCA (N = 10); for Target coverage, over-expression of source gene, CLL: CLL (N = 10); for Target coverage, over-expression of source gene, CRC: CRC (N = 20); for Target coverage, over-expression of source gene, GB: GB (N = 24); for Target coverage, over-expression of source gene, HCC: HCC (N = 15); for Target coverage, over-expression of source gene, OC: OC (N = 12); for Target coverage, over-expression of source gene, OSCAR: OSCAR (N = 11); for Target coverage, over-expression of source gene, PC: PC (N = 26); for Target coverage, over-expression of source gene, RCC: RCC (N = 10); for Target coverage, over-expression of source gene, SCLC: SCLC (N = 10); for Target coverage, over-expression of source gene, pNSCLC: pNSCLC (N = 11)

237: peptide found in KIF14 (gene looked up) (KYVGQLAVL; listed as Homo sapiens) [compound 237]
Target coverage, over-expression category of source gene, ACC (N = 79) [1]: C (>=5% of tumors above the cutoff, but <20%)
Target coverage, over-expression category of source gene, BLCA (N = 408) [1]: A (>=50% of tumors above the cutoff)
Target coverage, over-expression category of source gene, CESC (N = 307) [1]: A (>=50% of tumors above the cutoff)
Target coverage, over-expression category of source gene, CHOL (N = 36) [1]: C (>=5% of tumors above the cutoff, but <20%)
Target coverage, over-expression category of source gene, HNSC (N = 521) [1]: A (>=50% of tumors above the cutoff)
Target coverage, over-expression category of source gene, LGG (N = 534) [1]: C (>=5% of tumors above the cutoff, but <20%)
Target coverage, over-expression category of source gene, DLBC (N = 48) [1]: A (>=50% of tumors above the cutoff)
Target coverage, over-expression category of source gene, MESO (N = 87) [1]: B (>=20% of tumors above the cutoff, but <50%)
Peptide Presentation on cancer entities [2]: HCC
Target coverage, over-expression of source gene, AML [3]: I (<19% over-expression = I)
Target coverage, over-expression of source gene, BRCA [3]: I (<19% over-expression = I)
Target coverage, over-expression of source gene, CLL [3]: I (<19% over-expression = I)
Target coverage, over-expression of source gene, CRC [3]: I (<19% over-expression = I)
Target coverage, over-expression of source gene, GB [3]: I (<19% over-expression = I)
Target coverage, over-expression of source gene, HCC [3]: I (<19% over-expression = I)
Target coverage, over-expression of source gene, OC [3]: I (<19% over-expression = I)
Target coverage, over-expression of source gene, OSCAR [3]: I (<19% over-expression = I)
Target coverage, over-expression of source gene, PC [3]: I (<19% over-expression = I)
Target coverage, over-expression of source gene, RCC [3]: I (<19% over-expression = I)
Target coverage, over-expression of source gene, SCLC [3]: II (20-49% = II)
Target coverage, over-expression of source gene, pNSCLC [3]: I (<19% over-expression = I)

244: peptide found in MMP13 (gene looked up) (VHFEDTGKTLLF; listed as Homo sapiens) [compound 244]
Target coverage, over-expression category of source gene, BLCA (N = 408) [1]: B (>=20% of tumors above the cutoff, but <50%)
Target coverage, over-expression category of source gene, CESC (N = 307) [1]: B (>=20% of tumors above the cutoff, but <50%)
Target coverage, over-expression category of source gene, HNSC (N = 521) [1]: A (>=50% of tumors above the cutoff)
Target coverage, over-expression category of source gene, DLBC (N = 48) [1]: C (>=5% of tumors above the cutoff, but <20%)
Target coverage, over-expression category of source gene, MESO (N = 87) [1]: C (>=5% of tumors above the cutoff, but <20%)
Peptide Presentation on cancer entities [2]: NSCLC
Target coverage, over-expression of source gene, AML [3]: I (<19% over-expression = I)
Target coverage, over-expression of source gene, BRCA [3]: II (20-49% = II)
Target coverage, over-expression of source gene, CLL [3]: I (<19% over-expression = I)
Target coverage, over-expression of source gene, CRC [3]: I (<19% over-expression = I)
Target coverage, over-expression of source gene, GB [3]: I (<19% over-expression = I)
Target coverage, over-expression of source gene, HCC [3]: I (<19% over-expression = I)
Target coverage, over-expression of source gene, OC [3]: I (<19% over-expression = I)
Target coverage, over-expression of source gene, OSCAR [3]: III (50-69% = III)
Target coverage, over-expression of source gene, PC [3]: I (<19% over-expression = I)
Target coverage, over-expression of source gene, RCC [3]: I (<19% over-expression = I)
Target coverage, over-expression of source gene, SCLC [3]: I (<19% over-expression = I)
Target coverage, over-expression of source gene, pNSCLC [3]: II (20-49% = II)

251: peptide found in NCAPG (gene looked up) (VYTKALSSL; listed as Homo sapiens) [compound 251]
Target coverage, over-expression category of source gene, ACC (N = 79) [1]: C (>=5% of tumors above the cutoff, but <20%)
Target coverage, over-expression category of source gene, BLCA (N = 408) [1]: B (>=20% of tumors above the cutoff, but <50%)
Target coverage, over-expression category of source gene, CESC (N = 307) [1]: A (>=50% of tumors above the cutoff)
Target coverage, over-expression category of source gene, CHOL (N = 36) [1]: C (>=5% of tumors above the cutoff, but <20%)
Target coverage, over-expression category of source gene, HNSC (N = 521) [1]: B (>=20% of tumors above the cutoff, but <50%)
Target coverage, over-expression category of source gene, LGG (N = 534) [1]: C (>=5% of tumors above the cutoff, but <20%)
Target coverage, over-expression category of source gene, DLBC (N = 48) [1]: A (>=50% of tumors above the cutoff)
Target coverage, over-expression category of source gene, MESO (N = 87) [1]: C (>=5% of tumors above the cutoff, but <20%)
ENTITIES [2]: NSCLC, HCC
Target coverage, over-expression of source gene, AML [3]: I (<19% over-expression = I)
Target coverage, over-expression of source gene, BRCA [3]: I (<19% over-expression = I)
Target coverage, over-expression of source gene, CLL [3]: I (<19% over-expression = I)
Target coverage, over-expression of source gene, CRC [3]: I (<19% over-expression = I)
Target coverage, over-expression of source gene, GB [3]: I (<19% over-expression = I)
Target coverage, over-expression of source gene, HCC [3]: I (<19% over-expression = I)
Target coverage, over-expression of source gene, OC [3]: I (<19% over-expression = I)
Target coverage, over-expression of source gene, OSCAR [3]: I (<19% over-expression = I)
Target coverage, over-expression of source gene, PC [3]: I (<19% over-expression = I)
Target coverage, over-expression of source gene, RCC [3]: I (<19% over-expression = I)
Target coverage, over-expression of source gene, SCLC [3]: III (50-69% = III)
Target coverage, over-expression of source gene, pNSCLC [3]: I (<19% over-expression = I)

258: peptide found in PKD2L1 (gene looked up) (AYAQLGYLL; listed as Homo sapiens) [compound 258]
Target coverage, over-expression category of source gene, KIRP (N = 291) ([1]; Kidney renal papillary cell carcinoma): C (>=5% of tumors above the cutoff, but <20%)
Peptide Presentation on cancer entities [2]: NSCLC
Target coverage, over-expression of source gene, AML [3]: I (<19% over-expression = I)
Target coverage, over-expression of source gene, BRCA [3]: I (<19% over-expression = I)
Target coverage, over-expression of source gene, CLL [3]: I (<19% over-expression = I)
Target coverage, over-expression of source gene, CRC [3]: I (<19% over-expression = I)
Target coverage, over-expression of source gene, GB [3]: I (<19% over-expression = I)
Target coverage, over-expression of source gene, HCC [3]: I (<19% over-expression = I)
Target coverage, over-expression of source gene, OC [3]: I (<19% over-expression = I)
Target coverage, over-expression of source gene, OSCAR [3]: I (<19% over-expression = I)
Target coverage, over-expression of source gene, PC [3]: I (<19% over-expression = I)
Target coverage, over-expression of source gene, RCC [3]: I (<19% over-expression = I)
Target coverage, over-expression of source gene, SCLC [3]: II (20-49% = II)
Target coverage, over-expression of source gene, pNSCLC [3]: I (<19% over-expression = I)

277: peptide found in TDG (gene looked up) (FYTFPFQQL; listed as Homo sapiens) [compound 277]
Target coverage, over-expression category of source gene, BLCA (N = 408) [1]: C (>=5% of tumors above the cutoff, but <20%)
Target coverage, over-expression category of source gene, DLBC (N = 48) [1]: C (>=5% of tumors above the cutoff, but <20%)
ENTITIES [2]: GC, RCC, PCA, HCC, NSCLC
Target coverage, over-expression of source gene, AML [3]: I (<19% over-expression = I)
Target coverage, over-expression of source gene, BRCA [3]: I (<19% over-expression = I)
Target coverage, over-expression of source gene, CLL [3]: I (<19% over-expression = I)
Target coverage, over-expression of source gene, CRC [3]: I (<19% over-expression = I)
Target coverage, over-expression of source gene, GB [3]: I (<19% over-expression = I)
Target coverage, over-expression of source gene, HCC [3]: I (<19% over-expression = I)
Target coverage, over-expression of source gene, OC [3]: I (<19% over-expression = I)
Target coverage, over-expression of source gene, OSCAR [3]: I (<19% over-expression = I)
Target coverage, over-expression of source gene, PC [3]: I (<19% over-expression = I)
Target coverage, over-expression of source gene, RCC [3]: I (<19% over-expression = I)
Target coverage, over-expression of source gene, SCLC [3]: II (20-49% = II)
Target coverage for source genes of selected peptides, GBC_CCC (N = 10) ([3]; gallbladder adenocarcinoma and cholangiocarcinoma, share of tumors with more than 1.5-fold higher expression than the highest-expressing relevant normal tissue, in-house RNAseq): I (<19% over-expression = I)
Target coverage for source genes of selected peptides, GC (N = 11) ([3]; gastric cancer, share of tumors with more than 1.5-fold higher expression than the highest-expressing relevant normal tissue, in-house RNAseq): I (<19% over-expression = I)
Target coverage for source genes of selected peptides, HNSCC (N = 10) ([3]; head and neck small cell carcinoma, share of tumors with more than 1.5-fold higher expression than the highest-expressing relevant normal tissue, in-house RNAseq): II (20-49% = II)
Target coverage for source genes of selected peptides, MEL (N = 10) ([3]; melanoma, share of tumors with more than 1.5-fold higher expression than the highest-expressing relevant normal tissue, in-house RNAseq): I (<19% over-expression = I)
Target coverage for source genes of selected peptides, NHL (N = 10) ([3]; non-Hodgkin lymphoma, share of tumors with more than 1.5-fold higher expression than the highest-expressing relevant normal tissue, in-house RNAseq): I (<19% over-expression = I)
Target coverage, over-expression of source gene, pNSCLC [3]: I (<19% over-expression = I)
Target coverage for source genes of selected peptides, PCA (n = 10) ([3]; prostate cancer and benign prostate hyperplasia, share of tumors with more than 1.5-fold higher expression than the highest-expressing relevant normal tissue, in-house RNAseq): I (<19% over-expression = I)
Target coverage for source genes of selected peptides, UBC (N = 10) ([3]; urinary bladder cancer, share of tumors with more than 1.5-fold higher expression than the highest-expressing relevant normal tissue, in-house RNAseq): I (<19% over-expression = I)
Target coverage for source genes of selected peptides, UTC (N = 10) ([3]; uterine cancer, share of tumors with more than 1.5-fold higher expression than the highest-expressing relevant normal tissue, in-house RNAseq): I (<19% over-expression = I)

For some of these results: For expression read-outs the peptide stands for its source gene, whose mRNA was measured; the gene is not named for every peptide.
